{
  "source": "paper PMC10838158",
  "key": {"[1]": {"target": "T1, AtERdj3A–4M8H (Arabidopsis thaliana) (UniProt Q9SR96)", "T1 sequence": "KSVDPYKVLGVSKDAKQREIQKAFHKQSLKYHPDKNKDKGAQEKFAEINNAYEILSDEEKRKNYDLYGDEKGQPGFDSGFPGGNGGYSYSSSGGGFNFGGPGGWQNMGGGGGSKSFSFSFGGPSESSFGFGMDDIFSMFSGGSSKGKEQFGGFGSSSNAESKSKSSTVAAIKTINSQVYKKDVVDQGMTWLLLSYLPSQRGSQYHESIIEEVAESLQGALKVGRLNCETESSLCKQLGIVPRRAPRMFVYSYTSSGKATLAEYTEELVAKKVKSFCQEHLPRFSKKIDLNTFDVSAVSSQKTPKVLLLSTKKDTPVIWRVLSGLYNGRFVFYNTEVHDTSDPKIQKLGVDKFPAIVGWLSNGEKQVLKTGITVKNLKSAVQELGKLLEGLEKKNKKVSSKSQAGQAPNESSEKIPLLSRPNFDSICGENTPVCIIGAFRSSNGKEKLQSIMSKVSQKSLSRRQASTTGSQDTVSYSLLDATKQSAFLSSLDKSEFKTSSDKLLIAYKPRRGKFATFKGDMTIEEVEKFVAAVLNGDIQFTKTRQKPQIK", "assay": "co-IP; in vivo: 4M8H-tagged AtERdj constructs co-expressed with AtBiP1–GFP, CMV MP–GST or GFP in N. benthamiana leaves; total protein (100 µg) with c-Myc affinity beads 4 h at 4 °C; blots with anti-GFP or anti-GST"}, "[2]": {"target": "T2, AtERdj2A–4M8H (Arabidopsis thaliana) (UniProt Q0WT48)", "T2 sequence": "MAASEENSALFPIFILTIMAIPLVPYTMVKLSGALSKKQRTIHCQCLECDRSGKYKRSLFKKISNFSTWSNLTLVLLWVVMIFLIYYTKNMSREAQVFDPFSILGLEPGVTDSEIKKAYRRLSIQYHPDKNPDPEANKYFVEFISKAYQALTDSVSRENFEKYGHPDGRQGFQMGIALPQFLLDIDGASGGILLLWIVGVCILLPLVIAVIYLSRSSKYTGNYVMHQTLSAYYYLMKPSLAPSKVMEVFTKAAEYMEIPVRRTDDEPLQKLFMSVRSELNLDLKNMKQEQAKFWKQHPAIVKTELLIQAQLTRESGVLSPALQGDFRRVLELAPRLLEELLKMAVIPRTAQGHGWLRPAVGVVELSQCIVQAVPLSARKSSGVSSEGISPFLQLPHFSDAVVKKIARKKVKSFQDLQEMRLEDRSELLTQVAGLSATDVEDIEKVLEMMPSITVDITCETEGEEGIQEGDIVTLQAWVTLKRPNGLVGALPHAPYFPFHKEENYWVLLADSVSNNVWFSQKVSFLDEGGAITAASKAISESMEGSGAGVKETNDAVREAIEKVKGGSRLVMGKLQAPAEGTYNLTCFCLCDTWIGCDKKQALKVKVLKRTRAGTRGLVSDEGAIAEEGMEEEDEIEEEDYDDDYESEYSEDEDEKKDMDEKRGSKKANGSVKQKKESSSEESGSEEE", "assay": "co-IP; in vivo: 4M8H-tagged AtERdj constructs co-expressed with AtBiP1–GFP, CMV MP–GST or GFP in N. benthamiana leaves; total protein (100 µg) with c-Myc affinity beads 4 h at 4 °C; blots with anti-GFP or anti-GST"}},
  "note": "Results are given in words; binding and its absence hold for the method and conditions named. Binding seen in cells or lysates may run through a third protein. For some assays here: Binding can be weak; no strength is given.",
  "data": [
    {"substance": "CMV MP–GST (GST-fused cucumber mosaic virus movement protein)", "values": [
      {"measurement": "binding", "setting": "[1]", "result": "no binding"},
      {"measurement": "binding", "setting": "[2]", "result": "binds"}
    ]}
  ]
}
